# Laboratory results taken from the supplement of paper PMC8728848.
# The other results are listed elsewhere or left out.
# B1: AT1G77380(17) (Arabidopsis thaliana), Q39134 (protein)
# chain: MVQNHQTVLAVDMPQTGGSKYLDDDGKNKRTGSVWTASAHIITAVIGSGVLSLAWATAQLGWLAGPVVMLLFSAVTYFTSSLLAACYRSGDPISGKRNYTYMDAVRSNLGGVKVTLCGIVQYLNIFGVAIGYTIASAISMMAIKRSNCFHKSGGKDPCHMNSNPYMIAFGLVQILFSQIPDFDQLWWLSILAAVMSFTYSSAGLALGIAQVVVNGKVKGSLTGISIGAVTETQKIWRTFQALGDIAFAYSYSIILIEIQDTVKSPPSEEKTMKKATLVSVSVTTMFYMLCGCMGYAAFGDLSPGNLLTGFGFYNPYWLLDIANAAIVIHLIGAYQVYCQPLFAFIEKQASIQFPDSEFIAKDIKIPIPGFKPLRLNVFRLIWRTVFVIITTVISMLLPFFNDVVGLLGALGFWPLTVYFPVEMYIAQKKIPRWSTRWVCLQVFSLGCLVVSIAAAAGSIAGVLLDLKSYKPFRSEY
# Experiments:
# Assay in all cases: glycan array binding signal (z-score within array); higher = stronger binding
# Details in all cases: glycan notation: IUPAC condensed, linker removed
# Fuc(a1-2)Gal = target: Fuc(a1-2)Gal
# How it was run: (§1)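 Columns mapping to the same glycan were averaged after glycan names were converted to IUPAC-condensed notation. The data come from 3228 arrays in the Consortium for Functional Glycomics database, limited to those with an available protein sequence. Binding is reported as a within-array Z-score averaged across arrays of one protein sequence and across linkers.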
# Fuc(a1-2)Gal(b1-3)GalNAc = target: Fuc(a1-2)Gal(b1-3)GalNAc
# How it was run: as §1
# [1] = target: Fuc(a1-2)Gal(b1-3)GalNAc(a1-3)[Fuc(a1-2)]Gal(b1-4)Glc
# How it was run: as §1
# [2] = target: Fuc(a1-2)Gal(b1-3)GalNAc(a1-3)[Fuc(a1-2)]Gal(b1-4)GlcNAc
# How it was run: as §1
# [3] = target: Fuc(a1-2)Gal(b1-3)GalNAc(b1-3)Gal
# How it was run: as §1
# [4] = target: Fuc(a1-2)Gal(b1-3)GalNAc(b1-3)Gal(a1-4)Gal(b1-4)Glc
# How it was run: as §1
# [5] = target: Fuc(a1-2)Gal(b1-3)GalNAc(b1-4)[Neu5Ac(a2-3)]Gal(b1-4)Glc
# How it was run: as §1
# Fuc(a1-2)Gal(b1-3)GlcNAc = target: Fuc(a1-2)Gal(b1-3)GlcNAc
# How it was run: as §1
# [6] = target: Fuc(a1-2)Gal(b1-3)GlcNAc(b1-2)Man(a1-3)[Fuc(a1-2)Gal(b1-3)GlcNAc(b1-2)Man(a1-6)]Man(b1-4)GlcNAc(b1-4)GlcNAc
# How it was run: as §1
# [7] = target: Fuc(a1-2)Gal(b1-3)GlcNAc(b1-2)Man(a1-3)[Fuc(a1-2)Gal(b1-3)GlcNAc(b1-2)Man(a1-6)]Man(b1-4)GlcNAc(b1-4)[Fuc(a1-6)]GlcNAc
# How it was run: as §1
# [8] = target: Fuc(a1-2)Gal(b1-3)GlcNAc(b1-3)Gal(b1-4)Glc
# How it was run: as §1
# [9] = target: Fuc(a1-2)Gal(b1-3)GlcNAc(b1-3)GalNAc
# How it was run: as §1
# [10] = target: Fuc(a1-2)Gal(b1-3)GlcNAc(b1-3)[Fuc(a1-2)Gal(b1-3)GlcNAc(b1-6)]GalNAc
# How it was run: as §1
# [11] = target: Fuc(a1-2)Gal(b1-3)GlcNAc(b1-3)[Gal(b1-4)GlcNAc(b1-6)]Gal(b1-4)Glc
# How it was run: as §1
# [12] = target: Fuc(a1-2)Gal(b1-3)GlcNAc(b1-3)[Neu5Ac(a2-6)Gal(b1-4)GlcNAc(b1-6)]Gal(b1-4)Glc
# How it was run: as §1
# [13] = target: Fuc(a1-2)Gal(b1-3)GlcNAc6S
# How it was run: as §1
# [14] = target: Fuc(a1-2)Gal(b1-3)[Fuc(a1-4)]GlcNAc
# How it was run: as §1
# [15] = target: Fuc(a1-2)Gal(b1-3)[Fuc(a1-4)]GlcNAc(b1-2)Man(a1-3)[Fuc(a1-2)Gal(b1-3)[Fuc(a1-4)]GlcNAc(b1-2)Man(a1-3)]Man(b1-4)GlcNAc(b1-4)GlcNAc
# How it was run: as §1
# [16] = target: Fuc(a1-2)Gal(b1-3)[Fuc(a1-4)]GlcNAc(b1-2)Man(a1-3)[Fuc(a1-2)Gal(b1-3)[Fuc(a1-4)]GlcNAc(b1-2)Man(a1-6)]Man(b1-4)GlcNAc(b1-4)[Fuc(a1-6)]GlcNAc(b1-4)[Fuc(a1-6)]GlcNAc
# How it was run: as §1
# [17] = target: Fuc(a1-2)Gal(b1-3)[Fuc(a1-4)]GlcNAc(b1-3)[Fuc(a1-3)[Gal(b1-4)]GlcNAc(b1-6)]Gal(b1-4)Glc
# How it was run: as §1
# [18] = target: Fuc(a1-2)Gal(b1-3)[Fuc(a1-4)]GlcNAc(b1-3)[Gal(b1-4)GlcNAc(b1-6)]Gal(b1-4)Glc
# How it was run: as §1
# [19] = target: Fuc(a1-2)Gal(b1-4)Fuc(a1-3)]GlcNAc(b1-2)Man(a1-3)[Fuc(a1-2)Gal(b1-4)[Fuc(a1-3)]GlcNAc(b1-2)Man(a1-6)]Man(b1-4)GlcNAc(b1-4)GlcNAc
# How it was run: as §1
# Fuc(a1-2)Gal(b1-4)Glc = target: Fuc(a1-2)Gal(b1-4)Glc
# How it was run: as §1
# Fuc(a1-2)Gal(b1-4)Glc6S = target: Fuc(a1-2)Gal(b1-4)Glc6S
# How it was run: as §1
# Fuc(a1-2)Gal(b1-4)GlcNAc = target: Fuc(a1-2)Gal(b1-4)GlcNAc
# How it was run: as §1
# [20] = target: Fuc(a1-2)Gal(b1-4)GlcNAc(b1-2)Man
# How it was run: as §1
# [21] = target: Fuc(a1-2)Gal(b1-4)GlcNAc(b1-2)Man(a1-3)[Fuc(a1-2)Gal(b1-4)GlcNAc(b1-2)Man(a1-6)]Man(b1-4)GlcNAc(b1-4)GlcNAc
# How it was run: as §1
# [22] = target: Fuc(a1-2)Gal(b1-4)GlcNAc(b1-2)Man(a1-3)[Fuc(a1-2)Gal(b1-4)GlcNAc(b1-2)Man(a1-6)]Man(b1-4)GlcNAc(b1-4)[Fuc(a1-6)]GlcNAc
# How it was run: as §1
# [23] = target: Fuc(a1-2)Gal(b1-4)GlcNAc(b1-2)[Fuc(a1-2)Gal(b1-4)GlcNAc(b1-4)]Man(a1-3)[Fuc(a1-2)Gal(b1-4)GlcNAc(b1-2)Man(a1-6)]Man(b1-4)GlcNAc(b1-4)GlcNAc
# How it was run: as §1
# [24] = target: Fuc(a1-2)Gal(b1-4)GlcNAc(b1-3)Gal(b1-4)GlcNAc
# How it was run: as §1
binder,measurement,setting,value
B1,glycan array binding signal (z-score),Fuc(a1-2)Gal,2.99
same,glycan array binding signal (z-score),Fuc(a1-2)Gal(b1-3)GalNAc,-0.359
same,glycan array binding signal (z-score),[1],0.048
same,glycan array binding signal (z-score),[2],2.89
same,glycan array binding signal (z-score),[3],0.084
same,glycan array binding signal (z-score),[4],0.14
same,glycan array binding signal (z-score),[5],-0.032
same,glycan array binding signal (z-score),Fuc(a1-2)Gal(b1-3)GlcNAc,-0.752
same,glycan array binding signal (z-score),[6],-0.686
same,glycan array binding signal (z-score),[7],-0.155
same,glycan array binding signal (z-score),[8],-0.305
same,glycan array binding signal (z-score),[9],-0.512
same,glycan array binding signal (z-score),[10],-0.692
same,glycan array binding signal (z-score),[11],-0.428
same,glycan array binding signal (z-score),[12],-0.856
same,glycan array binding signal (z-score),[13],-0.056
same,glycan array binding signal (z-score),[14],-0.771
same,glycan array binding signal (z-score),[15],0.75
same,glycan array binding signal (z-score),[16],-0.683
same,glycan array binding signal (z-score),[17],-0.82
same,glycan array binding signal (z-score),[18],-0.383
same,glycan array binding signal (z-score),[19],0.751
same,glycan array binding signal (z-score),Fuc(a1-2)Gal(b1-4)Glc,0.457
same,glycan array binding signal (z-score),Fuc(a1-2)Gal(b1-4)Glc6S,-0.205
same,glycan array binding signal (z-score),Fuc(a1-2)Gal(b1-4)GlcNAc,0.26
same,glycan array binding signal (z-score),[20],-0.431
same,glycan array binding signal (z-score),[21],-0.43
same,glycan array binding signal (z-score),[22],-0.797
same,glycan array binding signal (z-score),[23],-0.759
same,glycan array binding signal (z-score),[24],-0.766

# An excerpt of these results, with bars between the fields.
binder | measurement | setting | value
B1 | glycan array binding signal (z-score) | [13] | -0.056
same | glycan array binding signal (z-score) | [14] | -0.771
